Test results published in US20030104507A1, “Method for detection of ATP” (priority 2001, published 2003).
Some results were stated once for a whole list of compounds, not compound by compound.

System: ATPase activity endogenous to L929 cell lysate
Experiment: Detergent inhibition of ATPase endogenous to L929 cell lysate (ATP remaining by luciferase luminescence, 22° C.)
Type: biochemical
Experimental: Three separate detergents in each of four detergent classes were tested: anionic [SDS (Sodium dodecyl sulfate), Bioterge (an α olefin sulfate), and sodium deoxycholate], nonionic [TRITON X-100, BigCHAP (N,N-bis(3-D-Gluconamidopropyl)cholamide) and THESIT (polyethylene glycol 400 dodecyl ether, Fluka, #88315)], cationic [BDDABr (Benzyldimethyldodecylammonium bromide), CTAB (Cetyltrimethylammonium bromide), and DTAB (dodecyltrimethylammonium bromide)] and zwitterionic [CHAPS (3[(3-Cholamidopropyl)dimethylammonio]propanesulfonic acid), CHAPSO (3-([3-Cholamidopropyl]dimethylammonio)-2-hydroxy-1-propanesulfonate), and Sulfobetaine 3-10 ([…]-N,N-dimethyl-3-ammonio-1-propanesulfonate)]. Detergents were obtained from Sigma, Fluka and Aldrich. […]
At various timepoints, 20 μl from each sample/detergent mixture was added to a 96-well luminometer plate in triplicate, and then 100 μl of a solution (“luciferase-luciferin” or “L/L reagent”) containing 25 mM HEPES buffer (pH 7.5), 40 μg luciferase enzyme LucPpe2m146 (Promega, E140), 100 μM luciferin (Promega), and 10 mM MgSO4 was added to each well. […] After mixing the contents of the plate, light output was measured with a Dynex MLX microtiter plate luminometer (Chantilly, Va.), 0.5 second reads per well with the first measurement taken five minutes after the detergent solution was combined with the sample. […]

CCCCCCCCCCCC[N+](C)(C)Cc1ccccc1.[Br-] [BDDABr, Benzyldimethyldodecylammonium bromide]
more ATP present in the sample after four hours than samples without these detergents (BDDABr 0.5%, DTAB 0.5% and 1.0%): at least 25 fold
concentrations which resulted in a 25% or greater decrease in the relative ATPase activity (compared to reactions in the absence of detergent): ≥ 0.02%
